These are yes or no findings as the source states them, for the method shown. Binding calls can cover weak binding; strength is not graded here.
Molecular target: VEGF (ATGEN, South Korea)
Assay: bispecific sandwich ELISA: antibody pre-incubated with 2 ug/ml biotin-DLL4-hFc, captured on VEGF-coated plate, detected with streptavidin-HRP

| Binder | binding |
| --- | --- |
| anti-VEGF/anti-DLL4 bispecific antibody 219R45-MB-21R83 (bispecific antibody, human IgG2, Monovalent/bispecific IgG2 heterodimer with charge-modified CH3 domains and two identical light chains) heavy 1: QVQLVQSGAEVKKPGASVKVSCKASGYTFTNYWMHWVRQAPGQGLEWMGDINPSNGRTSYKEKFKRRVTLSVDKSSSTAYMELSSLRSEDTAVYFCTIHYDDKYYPLMDYWGQGTLVTVSSASTKGPSVFPLAPCSRSTSESTAALGCLVKDYFPEPVTVSWNSGALTSGVHTFPAVLQSSGLYSLSSVVTVPSSNFGTQTYTCNVDHKPSNTKVDKTVERKCCVECPPCPAPPVAGPSVFLFPPKPKDTLMISRTPEVTCVVVDVSHEDPEVQFNWYVDGVEVHNAKTKPREEQFNSTFRVVSVLTVVHQDWLNGKEYKCKVSNKGLPAPIEKTISKTKGQPREPQVYTLPPSREKMTKNQVSLTCLVKGFYPSDIAVEWESNGQPENNYKTTPPMLKSDGSFFLYSKLTVDKSRWQQGNVFSCSVMHEALHNHYTQKSLSLSPGK heavy 2: QVQLVQSGAEVKKPGASVKISCKASGYSFTAYYIHWVKQAPGQGLEWIGYISNYNRATNYNQKFKGRVTFTTDTSTSTAYMELRSLRSDDTAVYYCARDYDYDVGMDYWGQGTLVTVSSASTKGPSVFPLAPCSRSTSESTAALGCLVKDYFPEPVTVSWNSGALTSGVHTFPAVLQSSGLYSLSSVVTVPSSNFGTQTYTCNVDHKPSNTKVDKTVERKCCVECPPCPAPPVAGPSVFLFPPKPKDTLMISRTPEVTCVVVDVSHEDPEVQFNWYVDGVEVHNAKTKPREEQFNSTFRVVSVLTVVHQDWLNGKEYKCKVSNKGLPAPIEKTISKTKGQPREPQVYTLPPSREEMTKNQVSLTCLVEGFYPSDIAVEWESNGQPENNYKTTPPMLDSDGSFFLYSELTVDKSRWQQGNVFSCSVMHEALHNHYTQKSLSLSPGK light: DIVMTQSPDSLAVSLGERATISCRASESVDNYGISFMKWFQQKPGQPPKLLIYAASNQGSGVPDRFSGSGSGTDFTLTISSLQAEDVAVYYCQQSKEVPWTFGGGTKVEIKRTVAAPSVIFPPSDEQLKSGTASVVCLLNNFYPREAKVQWKVDNALQSGNSQESVTEQDSKDSTYSLSSTLTLSKADYEKHKVYACEVTHQGLSSPVTKSFNRGEC | binds |
| anti-VEGF/anti-DLL4 bispecific antibody 219R45-MB-21R79 (bispecific antibody, human IgG2, Monovalent/bispecific IgG2 heterodimer with charge-modified CH3 domains and two identical light chains) heavy 1: QVQLVQSGAEVKKPGASVKVSCKASGYTFTNYWMHWVRQAPGQGLEWMGDINPSNGRTSYKEKFKRRVTLSVDKSSSTAYMELSSLRSEDTAVYFCTIHYDDKYYPLMDYWGQGTLVTVSSASTKGPSVFPLAPCSRSTSESTAALGCLVKDYFPEPVTVSWNSGALTSGVHTFPAVLQSSGLYSLSSVVTVPSSNFGTQTYTCNVDHKPSNTKVDKTVERKCCVECPPCPAPPVAGPSVFLFPPKPKDTLMISRTPEVTCVVVDVSHEDPEVQFNWYVDGVEVHNAKTKPREEQFNSTFRVVSVLTVVHQDWLNGKEYKCKVSNKGLPAPIEKTISKTKGQPREPQVYTLPPSREKMTKNQVSLTCLVKGFYPSDIAVEWESNGQPENNYKTTPPMLKSDGSFFLYSKLTVDKSRWQQGNVFSCSVMHEALHNHYTQKSLSLSPGK heavy 2: QVQLVQSGAEVKKPGASVKISCKASGYSFTAYYIHWVKQAPGQGLEWIGYIANYNRATNYNQKFKGRVTFTTDTSTSTAYMELRSLRSDDTAVYYCARDYDYDVGMDYWGQGTLVTVSSASTKGPSVFPLAPCSRSTSESTAALGCLVKDYFPEPVTVSWNSGALTSGVHTFPAVLQSSGLYSLSSVVTVPSSNFGTQTYTCNVDHKPSNTKVDKTVERKCCVECPPCPAPPVAGPSVFLFPPKPKDTLMISRTPEVTCVVVDVSHEDPEVQFNWYVDGVEVHNAKTKPREEQFNSTFRVVSVLTVVHQDWLNGKEYKCKVSNKGLPAPIEKTISKTKGQPREPQVYTLPPSREEMTKNQVSLTCLVEGFYPSDIAVEWESNGQPENNYKTTPPMLDSDGSFFLYSELTVDKSRWQQGNVFSCSVMHEALHNHYTQKSLSLSPGK light: DIVMTQSPDSLAVSLGERATISCRASESVDNYGISFMKWFQQKPGQPPKLLIYAASNQGSGVPDRFSGSGSGTDFTLTISSLQAEDVAVYYCQQSKEVPWTFGGGTKVEIKRTVAAPSVIFPPSDEQLKSGTASVVCLLNNFYPREAKVQWKVDNALQSGNSQESVTEQDSKDSTYSLSSTLTLSKADYEKHKVYACEVTHQGLSSPVTKSFNRGEC | binds |

More lines, now with the values ahead:

| binding | Binder |
| --- | --- |
| binds | anti-VEGF/anti-DLL4 bispecific antibody 219R45-MB-21M18 (bispecific antibody, human IgG2, Monovalent/bispecific (MB) IgG2 heterodimer with charge-modified CH3 domains and two identical light chains) heavy 1: QVQLVQSGAEVKKPGASVKVSCKASGYTFTNYWMHWVRQAPGQGLEWMGDINPSNGRTSYKEKFKRRVTLSVDKSSSTAYMELSSLRSEDTAVYFCTIHYDDKYYPLMDYWGQGTLVTVSSASTKGPSVFPLAPCSRSTSESTAALGCLVKDYFPEPVTVSWNSGALTSGVHTFPAVLQSSGLYSLSSVVTVPSSNFGTQTYTCNVDHKPSNTKVDKTVERKCCVECPPCPAPPVAGPSVFLFPPKPKDTLMISRTPEVTCVVVDVSHEDPEVQFNWYVDGVEVHNAKTKPREEQFNSTFRVVSVLTVVHQDWLNGKEYKCKVSNKGLPAPIEKTISKTKGQPREPQVYTLPPSREKMTKNQVSLTCLVKGFYPSDIAVEWESNGQPENNYKTTPPMLKSDGSFFLYSKLTVDKSRWQQGNVFSCSVMHEALHNHYTQKSLSLSPGK heavy 2: QVQLVQSGAEVKKPGASVKISCKASGYSFTAYYIHWVKQAPGQGLEWIGYISSYNGATNYNQKFKGRVTFTTDTSTSTAYMELRSLRSDDTAVYYCARDYDYDVGMDYWGQGTLVTVSSASTKGPSVFPLAPCSRSTSESTAALGCLVKDYFPEPVTVSWNSGALTSGVHTFPAVLQSSGLYSLSSVVTVPSSNFGTQTYTCNVDHKPSNTKVDKTVERKCCVECPPCPAPPVAGPSVFLFPPKPKDTLMISRTPEVTCVVVDVSHEDPEVQFNWYVDGVEVHNAKTKPREEQFNSTFRVVSVLTVVHQDWLNGKEYKCKVSNKGLPAPIEKTISKTKGQPREPQVYTLPPSREEMTKNQVSLTCLVEGFYPSDIAVEWESNGQPENNYKTTPPMLDSDGSFFLYSELTVDKSRWQQGNVFSCSVMHEALHNHYTQKSLSLSPGK light: DIVMTQSPDSLAVSLGERATISCRASESVDNYGISFMKWFQQKPGQPPKLLIYAASNQGSGVPDRFSGSGSGTDFTLTISSLQAEDVAVYYCQQSKEVPWTFGGGTKVEIKRTVAAPSVIFPPSDEQLKSGTASVVCLLNNFYPREAKVQWKVDNALQSGNSQESVTEQDSKDSTYSLSSTLTLSKADYEKHKVYACEVTHQGLSSPVTKSFNRGEC |
| binds | anti-VEGF/anti-DLL4 bispecific antibody 219R45-MB-21R75 (bispecific antibody, human IgG2, Monovalent/bispecific IgG2 heterodimer with charge-modified CH3 domains and two identical light chains) heavy 1: QVQLVQSGAEVKKPGASVKVSCKASGYTFTNYWMHWVRQAPGQGLEWMGDINPSNGRTSYKEKFKRRVTLSVDKSSSTAYMELSSLRSEDTAVYFCTIHYDDKYYPLMDYWGQGTLVTVSSASTKGPSVFPLAPCSRSTSESTAALGCLVKDYFPEPVTVSWNSGALTSGVHTFPAVLQSSGLYSLSSVVTVPSSNFGTQTYTCNVDHKPSNTKVDKTVERKCCVECPPCPAPPVAGPSVFLFPPKPKDTLMISRTPEVTCVVVDVSHEDPEVQFNWYVDGVEVHNAKTKPREEQFNSTFRVVSVLTVVHQDWLNGKEYKCKVSNKGLPAPIEKTISKTKGQPREPQVYTLPPSREKMTKNQVSLTCLVKGFYPSDIAVEWESNGQPENNYKTTPPMLKSDGSFFLYSKLTVDKSRWQQGNVFSCSVMHEALHNHYTQKSLSLSPGK heavy 2: QVQLVQSGAEVKKPGASVKISCKASGYSFTAYYIHWVKQAPGQGLEWIGYIAGYKDATNYNQKFKGRVTFTTDTSTSTAYMELRSLRSDDTAVYYCARDYDYDVGMDYWGQGTLVTVSSASTKGPSVFPLAPCSRSTSESTAALGCLVKDYFPEPVTVSWNSGALTSGVHTFPAVLQSSGLYSLSSVVTVPSSNFGTQTYTCNVDHKPSNTKVDKTVERKCCVECPPCPAPPVAGPSVFLFPPKPKDTLMISRTPEVTCVVVDVSHEDPEVQFNWYVDGVEVHNAKTKPREEQFNSTFRVVSVLTVVHQDWLNGKEYKCKVSNKGLPAPIEKTISKTKGQPREPQVYTLPPSREEMTKNQVSLTCLVEGFYPSDIAVEWESNGQPENNYKTTPPMLDSDGSFFLYSELTVDKSRWQQGNVFSCSVMHEALHNHYTQKSLSLSPGK light: DIVMTQSPDSLAVSLGERATISCRASESVDNYGISFMKWFQQKPGQPPKLLIYAASNQGSGVPDRFSGSGSGTDFTLTISSLQAEDVAVYYCQQSKEVPWTFGGGTKVEIKRTVAAPSVIFPPSDEQLKSGTASVVCLLNNFYPREAKVQWKVDNALQSGNSQESVTEQDSKDSTYSLSSTLTLSKADYEKHKVYACEVTHQGLSSPVTKSFNRGEC |

From patent US20180305449A1 (ONCOMED PHARMACEUTICALS, published 2018)
